{"source": "paper PMC3814723", "test_system": "T1, AdpAgh-His6 (Streptomyces ghanaensis ATCC14672)", "T1 sequence (looked up)": "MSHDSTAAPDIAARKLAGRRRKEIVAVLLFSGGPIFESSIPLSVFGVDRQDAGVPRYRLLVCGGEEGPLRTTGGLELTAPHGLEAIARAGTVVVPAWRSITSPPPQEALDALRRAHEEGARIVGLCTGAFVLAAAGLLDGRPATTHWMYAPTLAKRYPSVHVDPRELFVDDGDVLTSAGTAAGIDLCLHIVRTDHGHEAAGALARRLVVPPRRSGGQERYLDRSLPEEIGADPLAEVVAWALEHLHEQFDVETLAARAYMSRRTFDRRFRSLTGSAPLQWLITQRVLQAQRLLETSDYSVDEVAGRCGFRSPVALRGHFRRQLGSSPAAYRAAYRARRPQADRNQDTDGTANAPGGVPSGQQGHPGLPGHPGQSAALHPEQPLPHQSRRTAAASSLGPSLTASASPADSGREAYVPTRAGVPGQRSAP", "experiment": "EMSA", "conditions": "poly(dI-dC), 20 mM Tris-HCl pH 8.0, 1 mM EDTA, 1 mM DTT, 100 mM KCl, 10 mM MgCl2, 10% glycerol, 1 ug poly(dI-dC), 15 ul, 25 C, 15 min, 20 fmol probe, AdpAgh 1.1-88, recombinant protein, residues 1-428, protein details: C-terminal His6, label: 5'-32P, probe letters rebuilt from the primers and the genome", "key": {"[1]": {"conditions": "more than one complex at increasing AdpAgh"}}, "note": "Where a protein sequence is shown, tags need not be part of it.", "data": [{"sequence": "AAAGGTACCTCTGGACCCGCGCTATCTGACGGGTGTTCAGGCACAGGTCGTGATGGCGCACCAGGGCGATCCGCAGTTTGCGCTTGCGCCACAGCGGTATTCCCGACCGGGCCGGGGTCTCGGCCGGGGCGGAGCATCCGCCCGACGTCGCTCCCGCGGCGGGACCTGTGCTGATCACGGGCAATGTCTTCCGCATGCGATGTGCTCCTTCTGGGCCCTGCGGCTGATGTCTCGTGAAGTGGGGGTCTGCGGCGGTCCGGCCCCGCTACGGCCGGCGGCGGGCCCTTCGGACGGCGAGGTCCTCCAACTGCAGCAGGTAGAGCGCCAGGGGCTGCAGCCTGCTGACGCGCTGCGGGGCCCCGGGCCCCCGGCCGGCGGCCAGCAGCCGTTGCAGGAAGCGGTCGGGGCCGCGCCACCAGCCCGGTTCCACGACCGTCGCGTGGGCGAGGAACCGGAGCAGGTACGCCAGTCGGTGCGCGTCTAGATTT (double strand) [moeK5p]", "values": [{"measurement": "binding result", "setting": "[1]", "value": "binds"}]}, {"sequence": "AAAGGTACCAGGCCATGGGCTCCGCTTCGAGCTTCCGAGCCTATCGGGGCCCCTCTGCCGCGTGACGGCGGGATGGGCCGATCTTGTCTTATTTTATTGGCGCCTGAGGGAGCATCAGCACCTGGAACGCGCCGTCAGCACGTACCGACAGCCTTGCGCGTGACGGTCGGCCGCGCATGCGGATTGACGGAATTTCACCGTCTGAACAGGACGCTCCACCCGTTCTCGTCACGGCGGCCCTCGGGGTCCGCCGTCATCCCCAGGTATGACACGGCCTCCCGGCGCTCCGCCGGAAGTCGCCCCCGGAACCGGAGCAGCGGTTGACTGCACGGCGGCAAACGGACGGAACGATGGTGCACGTCCCCGAGAACCTCTCCGAGAACTTCTCCGAGAACCTCTCCGAGAACCTCTCCGAGAACATGTCGTCCTGACAGGAGTGCCCATCCCGTGACCACCGCACCCACCGCCGACCGGACCACCGCCGTGGCCGCGCGCGCCACGGACCTGTCGAAGTCTAGATTT (double strand) [bldAghp]", "values": [{"measurement": "binding result", "setting": "three complexes, single band at high AdpAgh", "value": "binds"}]}, {"sequence": "AAATCTAGAGCATAACCGCCGCACAAAGTCTCCCTACCCCACGGAAACGAACGCGTGTAGTATCGGCAACCGCCCTGCCGCACCCTGTCCTCGAGGCGGCCCGGTGGACCCGCTGTTCGTCTCTCCAGTGGAAGGGGAGTACGTGAACGACGCTTTTCGTCCGTCCGCCGGTGAATCCGCCGGACGGGCCCGCCGAAGGATTTCCGAGCACTTCCGCACTCCCTCGACCGCGGCGTGTGCCGGAACGGTCACGCAGTTCCCCGGGCGGGTCTGAAGGAAACCGCGCGACGGCGCCGGACCACGGCTTTCGCGCCGGCGCGGCACACCGGGAGGAACACTCCCGGCCGGCCGGGAACGGCCTCGGCGACCAGGGCGCCCCGCACCTCCATCCGAACGCGCGACACCTCATCCGGACGCGATCCGCACGTGCGACGCGGCCGGCACCCCGTCGCGTGACCCGACCGGACGACAAGCCGGACGGGTACCTTT (double strand) [moeO5p]", "values": [{"measurement": "binding result", "setting": "[1]", "value": "binds"}]}, {"sequence": "AAATCTAGAGCCGGCCGCGCGGCGGACCGTGACCCGCACCGCGGGGAAGCGGACCGCGTCCGGGTCCGGCCCCCCCTTCCCGGGCGACACCGGGTGCCACCGGACGGAGCGGGGGCGCACCGGTCGGCTGACCGGTTTCCGTGCACGCCCCCGTATCTTTTCAGCCAACTTCTGCTCCTCGTGCATCTCCTGCCGTAACCACCCCCCAACCCCCGTTCGACCTGCACGGAAAGGGTCACGGGGGTCCCGTGCACCCTATGGGGATTGGCCACTGCGACGAGGCGCACTTCCCTGCACGGCCCGCGAGTGCAACGCTTCGTGATCGAATGCTTCACGCCAAGTTGCCAAGTCGACAATGTGCCGGATGCCGAACTGGCCACCGGGGCACGGCGGGACGCAGTAGATTCGATCTTGACTGTCTTACGGCGGGGGACTCGTGCAGGACCGAGGGGAAACGTGCAGGAGCGACACAACCGAGGGGTACCTTT (double strand) [adpAghp]", "values": [{"measurement": "binding result", "setting": "intermediate complexes at 4.4 pmol, single band at saturation", "value": "binds"}]}, {"sequence": "AAATCTAGAAGGGCGCCACCAGCTGGAGCCCCATCCCCGCGGGGACCAGGAGGGCGAGCAGCGCCACGGCGGTCCGTTCACCGCGCAGGTAGCGGACAAACGTGGAGAGATGCCGCAACGGACTGTCTGCCAACGCGCCCCTCCCCCGTTCGCCCGGCGGCGAGCGGCCAGCATAAAGTCCTGTGCGCCTCCTTGTGAATGACGCCTCGTCAACGGCGGCCGGAGCACGCCCTTTCTGCGGGAATGCCGATAGCGGACGCCGCTCCGGGAGGGGGCGAAGCACACCATTGCTCGTGATTGACGCATGCTGTTAGACTCCCCACGTCTCTTGGTCCGGACATGCGTTTCTCAACGCCGAAAGCCTGGTCAACCGCACTTTCGGCACCGCACAGTCCCACGGCGTCCGAGCGGTCGCGCGAGTCGGCCCGGTCGAGCCAGAGGCAGCCACACGAACGTGCACCGCAATGCACCGCCTTGATCGGTACCTTT (double strand) [moeE5p]", "values": [{"measurement": "binding result", "setting": "one shifted band", "value": "binds"}]}]}
